This is one part of the list. Small differences around the control level are noise.

The chains behind the UniProt entries cited, without tags or fusion partners. Where a name states a change or a piece, a line headed by the entry shows the natural chain unless it says otherwise.
UniProt Q3MHD2: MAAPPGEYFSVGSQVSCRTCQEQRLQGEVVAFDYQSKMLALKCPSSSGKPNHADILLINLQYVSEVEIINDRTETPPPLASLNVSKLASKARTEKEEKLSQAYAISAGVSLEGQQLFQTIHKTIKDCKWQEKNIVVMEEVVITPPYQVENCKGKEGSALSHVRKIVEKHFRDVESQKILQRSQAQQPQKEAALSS
UniProt Q15386: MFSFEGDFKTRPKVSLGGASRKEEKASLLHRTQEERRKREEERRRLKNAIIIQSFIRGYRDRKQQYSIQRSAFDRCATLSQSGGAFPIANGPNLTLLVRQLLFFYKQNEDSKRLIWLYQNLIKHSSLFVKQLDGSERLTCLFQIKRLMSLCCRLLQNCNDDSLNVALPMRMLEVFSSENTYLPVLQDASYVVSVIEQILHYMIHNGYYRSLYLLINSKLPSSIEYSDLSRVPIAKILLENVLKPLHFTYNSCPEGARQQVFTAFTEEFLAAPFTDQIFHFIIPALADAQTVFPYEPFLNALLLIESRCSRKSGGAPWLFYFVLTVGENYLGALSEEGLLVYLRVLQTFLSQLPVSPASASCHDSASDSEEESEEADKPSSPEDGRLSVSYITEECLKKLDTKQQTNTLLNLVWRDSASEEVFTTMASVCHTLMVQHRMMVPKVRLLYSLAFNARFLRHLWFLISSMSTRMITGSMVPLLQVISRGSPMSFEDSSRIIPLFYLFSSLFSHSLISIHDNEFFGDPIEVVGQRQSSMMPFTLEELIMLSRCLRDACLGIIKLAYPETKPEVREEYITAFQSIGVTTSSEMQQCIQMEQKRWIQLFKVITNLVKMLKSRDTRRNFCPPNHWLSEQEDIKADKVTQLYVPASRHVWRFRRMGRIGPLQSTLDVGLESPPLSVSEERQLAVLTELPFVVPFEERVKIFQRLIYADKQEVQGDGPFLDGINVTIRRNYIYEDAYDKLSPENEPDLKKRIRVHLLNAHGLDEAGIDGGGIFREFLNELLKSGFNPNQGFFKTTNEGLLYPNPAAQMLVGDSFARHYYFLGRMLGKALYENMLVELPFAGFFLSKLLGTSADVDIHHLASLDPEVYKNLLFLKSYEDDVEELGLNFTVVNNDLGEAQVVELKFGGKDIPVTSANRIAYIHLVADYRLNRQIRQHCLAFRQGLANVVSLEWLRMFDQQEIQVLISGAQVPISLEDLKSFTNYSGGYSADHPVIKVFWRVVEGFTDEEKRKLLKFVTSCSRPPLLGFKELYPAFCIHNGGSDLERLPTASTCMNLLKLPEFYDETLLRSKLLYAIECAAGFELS
UniProt Q16401: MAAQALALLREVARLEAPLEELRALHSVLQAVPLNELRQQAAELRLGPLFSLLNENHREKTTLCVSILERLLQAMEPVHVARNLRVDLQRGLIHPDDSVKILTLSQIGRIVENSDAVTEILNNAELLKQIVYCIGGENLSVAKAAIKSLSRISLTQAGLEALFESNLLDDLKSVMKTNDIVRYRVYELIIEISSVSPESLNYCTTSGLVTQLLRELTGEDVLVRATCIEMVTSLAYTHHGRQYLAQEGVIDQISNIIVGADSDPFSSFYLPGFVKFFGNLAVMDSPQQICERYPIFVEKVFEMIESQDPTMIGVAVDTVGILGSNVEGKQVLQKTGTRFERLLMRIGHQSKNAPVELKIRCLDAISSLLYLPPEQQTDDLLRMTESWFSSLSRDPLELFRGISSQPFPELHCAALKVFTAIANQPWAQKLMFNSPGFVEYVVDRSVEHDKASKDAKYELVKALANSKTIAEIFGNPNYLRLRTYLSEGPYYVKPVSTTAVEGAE
UniProt Q15637: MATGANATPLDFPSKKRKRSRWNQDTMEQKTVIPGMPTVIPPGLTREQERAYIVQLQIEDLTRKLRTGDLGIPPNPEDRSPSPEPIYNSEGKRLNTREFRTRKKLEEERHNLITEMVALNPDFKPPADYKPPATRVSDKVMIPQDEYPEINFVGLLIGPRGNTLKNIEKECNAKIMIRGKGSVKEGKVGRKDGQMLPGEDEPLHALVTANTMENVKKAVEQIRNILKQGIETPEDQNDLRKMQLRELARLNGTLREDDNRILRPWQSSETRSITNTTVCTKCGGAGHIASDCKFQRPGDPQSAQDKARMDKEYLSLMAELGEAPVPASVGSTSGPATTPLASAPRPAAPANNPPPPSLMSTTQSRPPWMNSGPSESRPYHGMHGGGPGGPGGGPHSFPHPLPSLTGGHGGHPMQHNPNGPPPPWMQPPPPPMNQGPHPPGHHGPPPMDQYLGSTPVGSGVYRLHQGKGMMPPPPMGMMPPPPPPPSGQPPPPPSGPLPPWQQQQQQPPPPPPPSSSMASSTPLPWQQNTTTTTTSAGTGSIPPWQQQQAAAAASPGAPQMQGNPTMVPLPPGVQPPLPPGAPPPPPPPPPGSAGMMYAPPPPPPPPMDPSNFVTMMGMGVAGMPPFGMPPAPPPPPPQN
UniProt Q15560: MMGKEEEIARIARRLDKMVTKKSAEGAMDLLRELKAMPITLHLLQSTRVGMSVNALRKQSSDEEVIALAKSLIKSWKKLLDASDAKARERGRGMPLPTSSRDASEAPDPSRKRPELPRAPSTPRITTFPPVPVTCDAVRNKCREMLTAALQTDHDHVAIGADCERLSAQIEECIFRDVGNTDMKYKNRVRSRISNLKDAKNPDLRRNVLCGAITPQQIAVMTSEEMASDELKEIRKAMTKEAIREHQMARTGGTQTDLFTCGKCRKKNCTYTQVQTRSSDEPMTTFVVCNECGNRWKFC
UniProt Q15208: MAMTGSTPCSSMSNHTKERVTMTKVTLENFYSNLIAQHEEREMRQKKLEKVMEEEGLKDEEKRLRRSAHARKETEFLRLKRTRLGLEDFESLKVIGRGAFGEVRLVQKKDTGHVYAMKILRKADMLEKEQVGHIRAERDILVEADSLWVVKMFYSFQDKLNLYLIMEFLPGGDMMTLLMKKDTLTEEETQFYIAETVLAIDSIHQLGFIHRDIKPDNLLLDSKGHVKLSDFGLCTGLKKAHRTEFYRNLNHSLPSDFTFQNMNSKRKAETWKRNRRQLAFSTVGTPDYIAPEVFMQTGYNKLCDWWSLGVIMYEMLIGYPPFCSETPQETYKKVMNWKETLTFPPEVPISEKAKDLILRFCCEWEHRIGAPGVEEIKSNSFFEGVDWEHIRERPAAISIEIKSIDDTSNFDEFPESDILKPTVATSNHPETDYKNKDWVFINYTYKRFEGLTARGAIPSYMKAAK
UniProt Q15543, whole entry: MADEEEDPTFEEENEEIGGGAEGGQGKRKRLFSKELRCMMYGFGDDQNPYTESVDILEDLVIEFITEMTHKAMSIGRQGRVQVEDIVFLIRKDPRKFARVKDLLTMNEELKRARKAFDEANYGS
UniProt Q15544, whole entry: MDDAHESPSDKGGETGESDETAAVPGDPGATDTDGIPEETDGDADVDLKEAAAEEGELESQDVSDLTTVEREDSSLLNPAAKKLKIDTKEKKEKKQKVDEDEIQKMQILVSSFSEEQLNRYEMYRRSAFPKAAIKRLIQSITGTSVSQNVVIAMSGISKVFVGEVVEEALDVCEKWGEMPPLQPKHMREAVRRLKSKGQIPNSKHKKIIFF
UniProt Q16206: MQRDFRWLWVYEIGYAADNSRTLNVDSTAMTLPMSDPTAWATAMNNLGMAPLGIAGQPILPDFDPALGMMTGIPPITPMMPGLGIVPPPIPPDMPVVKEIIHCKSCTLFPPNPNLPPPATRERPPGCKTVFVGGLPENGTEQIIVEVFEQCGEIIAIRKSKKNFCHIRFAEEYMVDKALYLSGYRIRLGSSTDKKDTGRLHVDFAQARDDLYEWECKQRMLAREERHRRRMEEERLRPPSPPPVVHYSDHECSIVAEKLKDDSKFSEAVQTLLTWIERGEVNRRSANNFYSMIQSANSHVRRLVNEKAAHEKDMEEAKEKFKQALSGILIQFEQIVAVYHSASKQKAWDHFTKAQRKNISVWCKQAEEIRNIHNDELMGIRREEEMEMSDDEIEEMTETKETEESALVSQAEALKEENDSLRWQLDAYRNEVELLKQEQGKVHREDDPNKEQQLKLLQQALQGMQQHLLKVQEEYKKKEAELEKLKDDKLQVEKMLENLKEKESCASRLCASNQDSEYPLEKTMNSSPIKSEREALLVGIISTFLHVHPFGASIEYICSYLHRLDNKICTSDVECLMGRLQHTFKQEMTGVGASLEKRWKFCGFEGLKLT
UniProt Q2M3W8: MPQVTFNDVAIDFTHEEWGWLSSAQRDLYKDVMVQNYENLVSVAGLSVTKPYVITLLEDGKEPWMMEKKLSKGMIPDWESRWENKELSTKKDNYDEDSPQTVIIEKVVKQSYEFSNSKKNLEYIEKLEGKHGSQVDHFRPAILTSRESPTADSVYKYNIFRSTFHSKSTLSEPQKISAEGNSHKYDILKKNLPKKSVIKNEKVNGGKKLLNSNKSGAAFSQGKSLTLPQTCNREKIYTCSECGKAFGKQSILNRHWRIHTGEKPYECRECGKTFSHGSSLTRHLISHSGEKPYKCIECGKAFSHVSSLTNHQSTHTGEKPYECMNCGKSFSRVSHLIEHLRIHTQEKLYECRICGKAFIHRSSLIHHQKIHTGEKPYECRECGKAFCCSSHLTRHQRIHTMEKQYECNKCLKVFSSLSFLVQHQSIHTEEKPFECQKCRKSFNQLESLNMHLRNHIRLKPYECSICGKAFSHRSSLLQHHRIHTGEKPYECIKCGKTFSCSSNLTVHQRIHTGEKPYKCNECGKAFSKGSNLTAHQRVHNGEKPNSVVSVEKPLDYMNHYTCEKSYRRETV
UniProt Q15773: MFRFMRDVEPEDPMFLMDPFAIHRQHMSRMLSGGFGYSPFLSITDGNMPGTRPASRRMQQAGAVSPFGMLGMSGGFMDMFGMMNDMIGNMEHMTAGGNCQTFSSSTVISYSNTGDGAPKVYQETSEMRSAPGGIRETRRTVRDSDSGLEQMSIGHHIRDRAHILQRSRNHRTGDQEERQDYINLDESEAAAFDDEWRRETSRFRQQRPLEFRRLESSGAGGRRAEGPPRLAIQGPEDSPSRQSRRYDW
UniProt Q15181: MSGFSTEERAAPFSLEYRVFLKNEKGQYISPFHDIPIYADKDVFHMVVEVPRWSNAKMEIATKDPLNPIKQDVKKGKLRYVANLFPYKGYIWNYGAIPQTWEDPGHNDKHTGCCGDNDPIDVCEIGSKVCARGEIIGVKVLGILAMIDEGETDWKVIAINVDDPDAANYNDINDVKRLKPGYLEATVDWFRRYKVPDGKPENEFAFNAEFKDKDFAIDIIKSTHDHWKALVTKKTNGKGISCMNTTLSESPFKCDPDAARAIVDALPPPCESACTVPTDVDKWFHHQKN
UniProt Q15545, whole entry: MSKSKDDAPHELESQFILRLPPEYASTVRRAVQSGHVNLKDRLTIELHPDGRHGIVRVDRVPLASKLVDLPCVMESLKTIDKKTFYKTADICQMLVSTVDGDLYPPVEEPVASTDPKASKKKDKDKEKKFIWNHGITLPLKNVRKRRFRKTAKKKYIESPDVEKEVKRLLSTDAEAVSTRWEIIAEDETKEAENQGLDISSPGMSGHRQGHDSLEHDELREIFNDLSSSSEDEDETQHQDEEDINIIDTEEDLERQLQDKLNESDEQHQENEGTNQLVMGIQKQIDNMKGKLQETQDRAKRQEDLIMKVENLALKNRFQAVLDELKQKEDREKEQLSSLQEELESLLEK
UniProt Q15738: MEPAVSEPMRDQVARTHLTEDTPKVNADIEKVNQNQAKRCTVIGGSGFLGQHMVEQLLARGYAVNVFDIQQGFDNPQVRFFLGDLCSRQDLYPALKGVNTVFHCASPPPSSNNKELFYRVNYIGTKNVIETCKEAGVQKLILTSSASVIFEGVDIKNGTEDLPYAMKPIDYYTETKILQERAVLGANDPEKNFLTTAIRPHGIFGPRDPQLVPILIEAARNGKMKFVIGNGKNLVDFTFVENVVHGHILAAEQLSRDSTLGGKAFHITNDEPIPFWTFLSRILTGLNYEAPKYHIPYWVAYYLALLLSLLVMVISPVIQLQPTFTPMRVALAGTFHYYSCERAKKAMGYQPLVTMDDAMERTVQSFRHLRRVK
UniProt Q2VPK5: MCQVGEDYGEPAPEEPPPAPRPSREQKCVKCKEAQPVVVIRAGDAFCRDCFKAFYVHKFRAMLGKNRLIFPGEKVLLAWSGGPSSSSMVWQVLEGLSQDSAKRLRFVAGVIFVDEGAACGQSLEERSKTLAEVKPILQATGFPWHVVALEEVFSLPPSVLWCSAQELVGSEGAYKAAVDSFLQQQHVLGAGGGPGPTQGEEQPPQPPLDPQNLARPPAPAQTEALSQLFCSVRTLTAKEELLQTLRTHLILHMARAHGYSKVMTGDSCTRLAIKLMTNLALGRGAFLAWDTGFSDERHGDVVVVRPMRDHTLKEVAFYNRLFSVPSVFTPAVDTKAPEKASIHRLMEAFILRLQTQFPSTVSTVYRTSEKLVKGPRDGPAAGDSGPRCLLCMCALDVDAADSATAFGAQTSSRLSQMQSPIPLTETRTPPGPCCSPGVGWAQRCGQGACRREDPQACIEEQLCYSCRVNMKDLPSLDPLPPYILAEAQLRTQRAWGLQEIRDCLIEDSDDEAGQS

Compound in this test: Cc1nc(Nc2ncc(C(=O)Nc3c(C)cccc3Cl)s2)cc(N2CCN(CCO)CC2)n1 [dasatinib]
The test can be described thus: log2 fold change of tryptic peptide abundance, ligand vs vehicle (limited proteolysis) (log2 ratio); higher = more trypsin-susceptible (destabilized). As to conditions: ligand concentration: 5 uM; sample: K562 cleared lysate.
Regarding “UniProt Q3MHD2 (peptide sequence: SQAQQPQK, peptide start residue: 182)”, the log2 fold change is -0.0441. The result for “UniProt Q3KP31 (peptide sequence: LCEGKEGSQCAENFSPNLSVTKK, peptide start residue: 71)” reads 0.291. Then “UniProt Q2TAY7 (peptide sequence: GVTCLSFSK, peptide start residue: 309)”, with 0.563; and “SLC39A14 (peptide sequence: DQEEGVMEK, peptide start residue: 268) (UniProt Q15043)”, with 0.0972; and “AAK1 (peptide sequence: MFVNNEHDLQVCKR, peptide start residue: 76) (UniProt Q2M2I8)”, with -0.247. The result for “UniProt Q38SD2 (peptide sequence: IYIYTLK, peptide start residue: 1603)” reads 0.042; that for “UBE3C (peptide sequence: VVEGFTDEEKRK, peptide start residue: 999) (UniProt Q15386)”, 0.63. Consider “PSMD5 (peptide sequence: YPIFVEK, peptide start residue: 293) (UniProt Q16401)”, for which the log2 fold change was -0.194. “UniProt Q15397 (peptide sequence: TIAFAHDSTR, peptide start residue: 172)”: the log2 fold change was determined as 0.351. Then “PDS5A (peptide sequence: NIDPVKNK, peptide start residue: 1212) (UniProt Q29RF7)”, with -0.161. Then “SF1 (peptide sequence: GNTLKNIEKECNAK, peptide start residue: 161) (UniProt Q15637)”, with -0.388. The result for “EIF4H (peptide sequence: TVATPLNQVANPNSAIFGGARPR, peptide start residue: 217) (UniProt Q15056)” reads 0.23; that for “TCEA2 (peptide sequence: ISNLKDAK, peptide start residue: 195) (UniProt Q15560)”, 0.263.

On to “INF2 (peptide sequence: CSNEEVAAMIR, peptide start residue: 650) (UniProt Q27J81)”, for which the log2 fold change amounted to 0.73. Then “SF3B3 (peptide sequence: SEHPPLCGR, peptide start residue: 1150) (UniProt Q15393)”, with 0.0969; and “UniProt Q15208 (peptide sequence: VMEEEGLKDEEK, peptide start residue: 51)”, with -0.474; and “UniProt Q15543 (peptide sequence: KAFDEANYGS, peptide start residue: 115)”, with 0.311. Then “TERF2 (peptide sequence: RSDTMAGGGGSSDGSGR, peptide start residue: 39) (UniProt Q15554)”, with -0.474.

Turning to “TAF11 (peptide sequence: VDEDEIQK, peptide start residue: 98) (UniProt Q15544)”, the log2 fold change stood at 0.175. The result for “UniProt Q16206 (peptide sequence: DDLYEWECK, peptide start residue: 209)” reads -0.24; that for “UniProt Q2M3W8 (peptide sequence: ESPTADSVYK, peptide start residue: 147)”, -0.262; that for “MLF2 (peptide sequence: VYQETSEMR, peptide start residue: 120) (UniProt Q15773)”, -0.0523.

In the case of “HERPUD1 (peptide sequence: VYPERPRPEDQR, peptide start residue: 44) (UniProt Q15011)”, the log2 fold change came out at 0.636. For the target “STXBP2 (peptide sequence: RREPIPSLEAIYLLSPTEK, peptide start residue: 64) (UniProt Q15833)”, the log2 fold change is -0.249.

In the case of “CYTH1 (peptide sequence: QELLADIQR, peptide start residue: 28) (UniProt Q15438)”, the log2 fold change is -0.0915. The result for “FSCN1 (peptide sequence: WSLQSEAHR, peptide start residue: 101) (UniProt Q16658)” reads 0.356; that for “MTHFSD (peptide sequence: TQEVKVDPDKPLEGVR, peptide start residue: 59) (UniProt Q2M296)”, 0.635; that for “ACAP1 (peptide sequence: DFSLMASDDPEKLSR, peptide start residue: 718) (UniProt Q15027)”, 0.415. “RSU1 (peptide sequence: EIGELTQLK, peptide start residue: 175) (UniProt Q15404)”: the log2 fold change is -0.127. On to “PPA1 (peptide sequence: DKDFAIDIIK, peptide start residue: 212) (UniProt Q15181)”, for which the log2 fold change was -0.167. As to “TAF7 (peptide sequence: LTIELHPDGR, peptide start residue: 43) (UniProt Q15545)”, the log2 fold change is -0.34. Then “UniProt Q3B7T1 (peptide sequence: QPLCQYR, peptide start residue: 1016)”, with 0.435. Then “UniProt Q2M389 (peptide sequence: LDDRNPFKVGMK, peptide start residue: 694)”, with 0.382. The result for “NSDHL (peptide sequence: THLTEDTPK, peptide start residue: 16) (UniProt Q15738)” reads 0.0615; that for “SSX1 (peptide sequence: QATDFQGNDFDNDHNRR, peptide start residue: 75) (UniProt Q16384)”, 0.145; that for “UniProt Q2VPK5 (peptide sequence: DGPAAGDSGPR, peptide start residue: 377)”, 0.185.

As to “UniProt Q2KHM9 (peptide sequence: VNSTTEANIHLK, peptide start residue: 698)”, the log2 fold change was -1.29.

The values above are taken from the supplement of paper PMC12819154, “High-throughput peptide-centric local stability assay extends protein–ligand identification to membrane proteins, tissues and bacteria” (Nature Structural & Molecular Biology, 2025).
